Reference: publication PMC7862700
Only a part is listed here, and it is no random draw. For part of these data: At the low end of the ranking the order means little. The list shows a part of the results. For part of these data: The exact form of the protein is not confirmed.

Sequences of proteins named here, by UniProt entry; tags and fusion partners are left off. A change or cut given only in a name is not applied to a line headed by its entry.
UniProt Q00613: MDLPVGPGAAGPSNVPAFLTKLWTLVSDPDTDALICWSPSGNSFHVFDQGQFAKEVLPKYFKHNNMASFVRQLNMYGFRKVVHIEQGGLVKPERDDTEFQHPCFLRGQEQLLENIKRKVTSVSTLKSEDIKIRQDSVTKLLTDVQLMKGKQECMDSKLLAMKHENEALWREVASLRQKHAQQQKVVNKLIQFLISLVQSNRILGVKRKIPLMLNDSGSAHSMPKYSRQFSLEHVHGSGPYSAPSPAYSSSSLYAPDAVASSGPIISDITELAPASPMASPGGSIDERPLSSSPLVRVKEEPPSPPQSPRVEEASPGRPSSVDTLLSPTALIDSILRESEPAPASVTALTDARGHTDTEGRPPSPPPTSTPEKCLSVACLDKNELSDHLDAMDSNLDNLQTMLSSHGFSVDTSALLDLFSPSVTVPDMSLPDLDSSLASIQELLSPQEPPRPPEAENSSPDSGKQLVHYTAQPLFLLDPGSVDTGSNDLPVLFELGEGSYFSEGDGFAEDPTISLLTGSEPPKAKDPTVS

Assays:
HSF1 = HSF1 (UniProt Q00613); assay: DAPPL (digital affinity profiling via proximity ligation, sequencing); details: 10 mM Tris-HCl pH 7.5, 50 mM NaCl, 1 mM DTT, 4% glycerol, room temperature, 30 min; GST-TFs on glutathione beads, 16-mer random dsDNA library, 0.1% …; high values mean tight binding; double strand, one strand shown; scale: fold enrichment (6-mer frequency, TF over GST control)
ELF2 = molecular target: T1, ELF2 (UniProt Q15723); assay: as above; details: 10 mM Tris-HCl pH 7.5, 50 mM NaCl, 1 mM DTT, 4% glycerol, room temperature, 30 min; GST-TFs on glutathione beads, 16-mer random dsDNA library, 0.1% …; high values mean tight binding; double strand, one strand shown; scale: fold enrichment (6-mer frequency, TF over GST control)
T1 sequence: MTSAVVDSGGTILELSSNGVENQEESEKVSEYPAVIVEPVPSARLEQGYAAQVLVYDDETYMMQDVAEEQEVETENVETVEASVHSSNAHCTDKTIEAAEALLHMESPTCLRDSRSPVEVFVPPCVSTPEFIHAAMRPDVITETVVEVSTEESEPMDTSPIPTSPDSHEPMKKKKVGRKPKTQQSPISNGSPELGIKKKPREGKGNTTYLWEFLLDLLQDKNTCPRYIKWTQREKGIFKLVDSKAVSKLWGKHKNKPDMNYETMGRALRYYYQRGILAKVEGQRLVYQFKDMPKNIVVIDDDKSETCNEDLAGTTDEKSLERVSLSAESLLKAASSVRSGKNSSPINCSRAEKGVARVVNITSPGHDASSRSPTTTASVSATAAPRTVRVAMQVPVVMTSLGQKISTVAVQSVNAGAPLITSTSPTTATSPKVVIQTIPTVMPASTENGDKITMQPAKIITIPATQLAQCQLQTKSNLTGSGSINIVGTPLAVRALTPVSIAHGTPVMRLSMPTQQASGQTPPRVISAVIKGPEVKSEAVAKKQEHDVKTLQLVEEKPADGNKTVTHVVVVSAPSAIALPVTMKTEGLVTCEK

Row | Sequence | binding signal (HSF1) | binding signal (ELF2)
1 | CATAGC | 0.786 | 0.917
2 | CTACCC | 1.04 | 1.29
3 | GCATAC | 0.736 | 0.929
4 | CATCGT | 0.746 | 0.861
5 | ACTAGG | 0.965 | 1.02
6 | ACAAAT | 1.17 | 1.17
7 | CGCCCC | 0.889 | 1.09
8 | AGTGCC | 0.726 | 1.01
9 | AAAGCC | 1.14 | 1
10 | CACCCT | 0.957 | 1.09
11 | ACGTCC | 1.07 | 1.8
12 | CTGCTG | 1.09 | 1.21
13 | ACGGAA | 1.01 | 2.53
14 | TACAAT | 1.32 | 1.31
15 | CCCGCG | 0.844 | 0.913
16 | TTCCCG | 2.46 | 2.27
17 | CGCTAT | 0.908 | 1.07
18 | GCAAGC | 0.788 | 0.906
19 | CGCCTG | 0.969 | 1.03
20 | CTAGGC | 1.22 | 1.04
21 | GTTGAC | 0.843 | 1.15
22 | CTTCCC | 1.55 | 2.58
23 | AACCTG | 1.03 | 1.18

Row | Sequence | binding signal (HSF1) | binding signal (ELF2)
24 | TCAAAC | 1.03 | 1.13
25 | TAGGTC | 0.857 | 0.925
26 | GCCTGC | 0.879 | 1.01
27 | ATGGCG | 0.832 | 1
28 | AAGGCT | 1.1 | 0.999
29 | TCGCGG | 0.985 | 1.02
30 | TACGAG | 1.26 | 0.898
31 | CTCGCT | 1.66 | 1.7
32 | GAAGTC | 0.649 | 1.47
33 | TGTACA | 1.01 | 1.17
34 | GACCCA | 0.723 | 0.851
35 | AGTACC | 0.812 | 1.01
36 | TCGCCG | 0.992 | 1.14
37 | ACCCAT | 1.05 | 1.2
38 | CGCCAC | 0.748 | 1
39 | CTACCG | 1.16 | 1.88
40 | TGGGAT | 1.47 | 1.17
41 | CTCAGT | 0.971 | 1.14
42 | GTCTAA | 1.03 | 0.969
43 | GCGTCC | 0.869 | 1.26
44 | ATTGGT | 1.12 | 1.18
45 | GATAAT | 1.98 | 1.05
46 | GGATGG | 0.837 | 1.05

Row | Sequence | binding signal (HSF1) | binding signal (ELF2)
47 | CACCAA | 0.893 | 0.997
48 | ACCATC | 1.14 | 1.07
49 | TGCTCG | 1.56 | 1.15
50 | GTACGC | 0.823 | 1.07
51 | CAATGT | 0.89 | 0.987
52 | GCGTAT | 0.881 | 0.983
53 | CCACAC | 0.884 | 1.02
54 | TTAGAG | 1.25 | 0.838
55 | TGTGGT | 0.775 | 1
56 | TTATGC | 1.58 | 1.27
57 | GCACTC | 1.06 | 1.26
58 | TGCTTG | 0.999 | 1.09
59 | CATTGT | 0.933 | 1.03
60 | TCCTGA | 1.57 | 1.66
61 | TCAACA | 0.932 | 1
62 | TGGTCC | 0.933 | 1.15
63 | GGTTCA | 0.916 | 1.08
64 | TCACAA | 1.03 | 1.06
65 | ACAGGA | 0.69 | 1.38
66 | ACATAG | 0.951 | 0.975
67 | ACACTA | 1.12 | 1.13
68 | CCCCTT | 1.37 | 1.54
69 | GAACAA | 1.5 | 1.24

Row | Sequence | binding signal (HSF1) | binding signal (ELF2)
70 | AAGGGA | 0.899 | 0.9
71 | TAGTCA | 0.932 | 0.874
72 | ACACGG | 0.727 | 1.19
73 | CGCTTA | 1.53 | 1.17
74 | CATGTA | 0.955 | 1.02
75 | GCAGGT | 0.753 | 0.852
76 | CCGTTA | 0.857 | 0.886
77 | ACGCTC | 0.943 | 0.943
78 | CGGATT | 1.56 | 1.02
79 | AAAGTA | 1.29 | 1.13
80 | GCACCT | 0.944 | 1.01
81 | CGTAGC | 0.882 | 1.05
82 | GTATGT | 0.812 | 0.941
83 | AGCACA | 0.995 | 1.05
84 | TATTGA | 1.14 | 1.11
85 | GACTTC | 1.23 | 3.27
86 | CACCGG | 0.642 | 1.26
87 | TATGGG | 1.1 | 1.1
88 | ATAGTG | 0.822 | 0.868
89 | CCTCAA | 1.2 | 1.35
90 | TCCGTT | 0.999 | 1.53
91 | ACAAAC | 0.966 | 1.12
92 | CTGTGT | 0.714 | 0.787

Shown with each value named: part of the list above
TAGTCA
  binding signal (HSF1): 0.932; binding signal (ELF2): 0.874
ACGCTC
  binding signal (HSF1): 0.943; binding signal (ELF2): 0.943
AAAGTA
  binding signal (HSF1): 1.29; binding signal (ELF2): 1.13
ATAGTG
  binding signal (HSF1): 0.822; binding signal (ELF2): 0.868

The list continues:

Row | Sequence | binding signal (HSF1) | binding signal (ELF2)
93 | CTATCG | 1.17 | 1.01
94 | GTCCTT | 0.953 | 1.25
95 | TGTCCG | 0.898 | 1.6
96 | TTGCCC | 1.2 | 1.28
97 | TGTTTC | 1.43 | 2.01
98 | ACCAAG | 0.863 | 0.869
99 | TAAAAA | 1.56 | 1.35
100 | ACTTGA | 0.906 | 0.897
101 | CTGTCT | 1.22 | 1.35
102 | TAGCTT | 1.4 | 1.29
103 | CATGGC | 0.812 | 0.955
104 | CCTAGG | 0.931 | 0.922
105 | GCTTGG | 0.959 | 0.946
106 | CAATAG | 0.964 | 1.03
107 | AATCTA | 1.87 | 1.14
108 | CACTTT | 1.17 | 1.28
109 | AAATAC | 1.36 | 1.49
110 | ACCCAA | 0.898 | 1.06
111 | TAGCCT | 1.43 | 1.2
112 | GAATTG | 1.06 | 1.14
113 | TCAGAT | 1.21 | 1.01
114 | ATTGAG | 0.938 | 0.952
